PubChem BioAssay AID1487 (National Center for Advancing Translational Sciences (NCATS), 2009)
Some of the results follow. The main result of the screen is listed elsewhere. These columns were measured beside it and carry no call. Compounds called inactive in the main read-out are mostly missing here. Potencies come from curve fits of mixed quality, noted in brackets.

Assay: qHTS Assay for Modulators of Lamin A Splicing
Details: HeLa LMNA splicing GFP/RFP minigene ratio, 48 h
Method in brief: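 S3 HeLa cells stably expressing lamin A-EGFP splicing minigene plus DsRed2, 600 cells/well, 48 h compound exposure at 37C. Laser-scanning cytometry; analysed as GFP (500-530 nm)/RFP (575-640 nm) total intensity ratio; 0.5% DMSO vehicle.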

[1] = measured here: GFP splicing reporter channel
[2] = measured here: RFP viability control channel

SMILES	AC50 [1]	AC50 [2]
O=[N+]([O-])c1ccc(N2CCOCC2)cc1NC(c1ccccc1)c1ccccc1	2.82 µM [rising, partial curve]	–
CCCCCCCCCCCCC/C=C/[C@@H](O)[C@@H](N)CO	5.62 µM [falling, full curve, poor fit]	5.01 µM [falling, full curve, poor fit]
CC(=O)OCC1O[C@@H](O[C@@H]2C[C@H]3C(C)(C)[C@H](OC(C)=O)CC[C@]3(C)[C@H]3CC[C@]45C[C@]4(CC[C@H]5[C@@H](C)C[C@@H](O)[C@H](O)C(C)(C)O)[C@@]32C)[C@H](O)[C@@H](O)[C@@H]1O (stereo partly specified)	–	17.8 µM [rising, single point]
COc1ccc(CC(=O)NCCc2sc3nc(-c4ccc(OC)cc4)nn3c2C)cc1	14.1 µM [falling, single point]	–
S=C(Nc1ccc2nsnc2c1)N1CCCCCC1	3.55 µM [falling, single point]	–
CC(C)OC(=O)Nc1ccc2c(c1)N(C(=O)CCN1CCOCC1)c1ccccc1CC2	0.0282 µM [falling, full curve, poor fit]	6.31 µM [falling, partial curve, poor fit]
O=C(Nc1nnc(C(F)(F)F)s1)c1ccc(Br)s1	35.5 µM [rising, single point]	12.6 µM [rising, partial curve]
CCc1nnc(NC(=O)[C@@H](NC(=O)c2ccc(C(C)(C)C)cc2)C(C)C)s1	2.82 µM [rising, partial curve]	14.1 µM [rising, partial curve]
COc1cc(/C=C/c2ccc3c(Br)cc(Br)c(O)c3n2)ccc1O	3.16 µM [rising, partial curve, poor fit]	5.62 µM [rising, partial curve, poor fit]
Cn1c(N2CCN(c3ccccn3)CC2)nc2c1c(=O)n(Cc1ccc(Cl)cc1)c(=O)n2C	–	15.8 µM [rising, partial curve]
Cc1ccc(CN2C(=O)c3ccccc3NC23CCN(Cc2ccccc2)CC3)cc1	–	35.5 µM [rising, single point]
Cc1ccc2cc3c(N)c(C(=O)N4CC(=O)Nc5ccccc54)sc3nc2c1	1.12 µM [falling, full curve]	1.12 µM [falling, full curve]
C=CCc1cccc(C=Nc2cccn3cc(-c4ccccc4)nc23)c1O	0.0794 µM [rising, full curve, poor fit]	–
COc1ccc(OC)c(NC(=O)c2c(NCc3sccc3C)sc3c2CCCCC3)c1	–	35.5 µM [rising, single point]
O=C1NCCCc2c1oc1ccc(O)cc21	4.47 µM [falling, single point]	5.62 µM [falling, partial curve, poor fit]
O=C(c1ccccc1)N1CCN2C(=O)c3ccccc3C12c1ccc(Cl)cc1 (stereo unspecified)	11.2 µM [falling, single point]	8.91 µM [falling, partial curve]
CCc1ccccc1NC(=O)/C(=C/c1ccccc1)c1ccccc1	12.6 µM [rising, single point]	31.6 µM [rising, single point]
OCCNCC12CC3CC(CC(C3)C1)C2	35.5 µM [rising, partial curve, poor fit]	–
COc1ccc(N2CCN(c3oc(COc4ccc(Cl)cc4Cl)nc3C#N)CC2)cc1	–	11.2 µM [rising, single point]
COc1cccc(C(=O)Nc2ccc(N3CCN(Cc4ccccc4)CC3)cc2)c1	11.2 µM [rising, single point]	12.6 µM [rising, single point]
COc1cc(/C=N/Nc2ccc(F)cc2F)cc(OC)c1O	20 µM [rising, partial curve, poor fit]	–
C=CCn1c(CSc2nc3ccccc3s2)n[nH]c1=S	–	22.4 µM [falling, partial curve, poor fit]
O=C(NCCc1ccccc1)c1ccc(Cn2c(SCc3cccc(F)c3)nc3cccnc32)cc1	35.5 µM [falling, partial curve, poor fit]	39.8 µM [falling, partial curve, poor fit]
CC(C)C(c1nnnn1Cc1ccco1)N1CCN(c2nc3ccccc3s2)CC1 (stereo unspecified)	–	11.2 µM [rising, partial curve]
CCn1c(NCc2ccc(OC)cc2)nc2ccccc21	–	2.51 µM [falling, partial curve, poor fit]
CCOC(=O)C1=C(Nc2ccc(Cl)cc2)OCC1=O	3.16 µM [rising, partial curve, poor fit]	–

Single entries from the entries so far:
Entry for COc1cccc(C(=O)Nc2ccc(N3CCN(Cc4ccccc4)CC3)cc2)c1 under AC50 [1]: 11.2 µM [rising, single point]
Entry for COc1cc(/C=N/Nc2ccc(F)cc2F)cc(OC)c1O under AC50 [1]: 20 µM [rising, partial curve, poor fit]
Entry for CC(=O)OCC1O[C@@H](O[C@@H]2C[C@H]3C(C)(C)[C@H](OC(C)=O)CC[C@]3(C)[C@H]3CC[C@]45C[C@]4(CC[C@H]5[C@@H](C)C[C@@H](O)[C@H](O)C(C)(C)O)[C@@]32C)[C@H](O)[C@@H](O)[C@@H]1O (stereo partly specified) under AC50 [2]: 17.8 µM [rising, single point]

Next structures follow:

SMILES	AC50 [1]	AC50 [2]
Cc1ccc2cc(C#N)c(NCCNC(=S)NCCCN3CCOCC3)nc2c1	10 µM [falling, partial curve, poor fit]	12.6 µM [falling, partial curve]
O=C(Cn1c(=O)oc2cc(Cl)ccc21)Nc1cccc(C(F)(F)F)c1	0.00794 µM [rising, full curve, poor fit]	–
Cc1ccc(-c2cc(C(F)F)n3ncc(C(=O)Nc4cn(C)nc4C)c3n2)cc1	0.708 µM [falling, full curve]	2.82 µM [falling, partial curve, poor fit]
Cc1ccc(-c2nc3cnccn3c2Nc2c(C)cccc2C)o1	25.1 µM [falling, single point]	35.5 µM [falling, single point]
CCCSCCCNC(=O)C1CCCN(c2nn3cc(-c4ccc(OC)cc4)nc3s2)C1 (stereo unspecified)	10 µM [falling, partial curve]	11.2 µM [falling, partial curve]
Cc1c(Cc2ccccc2)sc(NC(=O)/C=C/c2cccc3ccccc23)c1C(N)=O	–	3.98 µM [rising, full curve, poor fit]
Cn1nc(N)c2c(-c3ccccc3)c(C#N)c(N)nc21	15.8 µM [rising, single point]	22.4 µM [rising, single point]
COc1ccc(S(=O)(=O)N(C)CC(=O)Nc2cccc(C(C)=O)c2)cc1C	10 µM [rising, partial curve, poor fit]	11.2 µM [rising, single point]
O=C(CCCSc1nc2ccccc2[nH]1)NC1=NCCS1	22.4 µM [rising, partial curve, poor fit]	20 µM [rising, partial curve, poor fit]
CCOC(=O)c1c(C)[nH]c(C(=O)COC(=O)COc2ccccc2C=O)c1C	3.98 µM [falling, full curve, poor fit]	–
CCn1c2ccccc2c2cc(NC(=O)N3CCOCC3)ccc21	–	35.5 µM [rising, single point]
O=C(Nc1cccnc1)c1ccco1	–	12.6 µM [rising, partial curve]
C#CC(=O)N(c1cccc(OC)c1)C(C(=O)NC1CCCC1)c1cccs1 (stereo unspecified)	35.5 µM [falling, single point]	35.5 µM [falling, single point]
COC(=O)[C@H](Cc1ccccc1)NC(=O)O[C@@H]1C(=O)c2cc(OC)ccc2O[C@H]1c1ccc(OC)c(Br)c1	10 µM [rising, single point]	10 µM [rising, single point]
CCN(CC)CCCNC(=O)CSc1nc(C)cc(C)n1	0.0501 µM [falling, full curve]	0.0631 µM [falling, full curve, poor fit]
c1cc2c(cc1C1CCCCC1)c1c3n2CCCNC3CCC1 (stereo unspecified)	25.1 µM [falling, single point]	25.1 µM [falling, single point]
O=C(Nc1ccc(F)cc1)c1ccccc1Oc1ccc(C(F)(F)F)cc1[N+](=O)[O-]	–	1.12 µM [rising, partial curve]
CCOc1ccc(Cl)cc1S(=O)(=O)N1CCN(c2ccc(F)cc2)CC1	15.8 µM [rising, single point]	17.8 µM [rising, single point]
Fc1ccc(NC(=S)N2CCN(c3cccc(C(F)(F)F)c3)CC2)cc1	–	35.5 µM [rising, single point]
COCCNC(=O)NC(=O)COC(=O)c1cc([N+](=O)[O-])ccc1Sc1nc(C)cs1	3.55 µM [falling, single point]	–
CCOc1ccc(NCc2nc3ccccc3n2CCOc2ccccc2)cc1	10 µM [rising, partial curve, poor fit]	14.1 µM [rising, partial curve]
Cc1cccc(OCCCCc2c(C)n[nH]c2C)c1	–	12.6 µM [rising, partial curve]
O=C(Nc1ccccc1OC(=O)c1ccc(Cl)cc1)c1ccc(Cl)cc1	–	22.4 µM [rising, partial curve, poor fit]
COc1cccc(C(=O)NCC2CCN(c3ccc(S(=O)(=O)N4CCOCC4)cc3)CC2)c1	–	12.6 µM [rising, partial curve]
O=C(NCc1cc(C(F)(F)F)cc(C(F)(F)F)c1)C1CC(c2ccccc2[N+](=O)[O-])=NO1 (stereo unspecified)	31.6 µM [rising, single point]	35.5 µM [rising, single point]
